Measurements: the supplement of paper PMC8728848
Some of the results follow.

What was measured:
Test in all cases: glycan array binding signal (z-score within array); higher = stronger binding
Conditions in all cases: glycan notation: IUPAC condensed, linker removed
[1] = biological target: Gal(b1-4)GlcNAc(b1-2)[Gal(b1-4)GlcNAc(b1-4)]Man(a1-3)[Gal(b1-4)GlcNAc(b1-2)Man(a1-6)]Man(b1-4)GlcNAc(b1-4)GlcNAc
Outline: (§1)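 Glycan array data came from 3228 arrays in the Consortium for Functional Glycomics database, and only arrays with an available protein sequence were kept. Glycan names were put into IUPAC-condensed notation, and columns mapping to the same glycan were averaged. The binding signal is a within-array Z-score, averaged across arrays of one protein sequence run at different concentrations or buffers and across linkers. A negative Z-score can be read as non-binding.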

[2] = biological target: Gal(b1-4)GlcNAc(b1-2)[Gal(b1-4)GlcNAc(b1-4)]Man(a1-3)[Gal(b1-4)GlcNAc(b1-2)[Gal(b1-4)GlcNAc(b1-6)]Man(a1-6)]Man(b1-4)GlcNAc(b1-4)GlcNAc
Outline: as §1

[3] = biological target: Gal(b1-4)GlcNAc(b1-2)[Gal(b1-4)GlcNAc(b1-4)]Man(a1-3)[GlcNAc(b1-4)][Gal(b1-4)GlcNAc(b1-2)Man(a1-6)]Man(b1-4)GlcNAc(b1-4)GlcNAc
Outline: as §1

[4] = biological target: Gal(b1-4)GlcNAc(b1-2)[Gal(b1-4)GlcNAc(b1-4)]Man(a1-3)[GlcNAc(b1-4)][Gal(b1-4)GlcNAc(b1-2)[Gal(b1-4)GlcNAc(b1-6)]Man(a1-6)]Man(b1-4)GlcNAc(b1-4)GlcNAc
Outline: as §1

[5] = biological target: Gal(b1-4)GlcNAc(b1-2)[Gal(b1-4)GlcNAc(b1-6)]Man(a1-6)[Gal(b1-4)GlcNAc(b1-2)Man(a1-3)]Man(b1-4)GlcNAc(b1-4)GlcNAc
Outline: as §1

[6] = biological target: Gal(b1-4)GlcNAc(b1-2)[Gal(b1-4)GlcNAc(b1-6)]Man(a1-6)[Gal(b1-4)GlcNAc(b1-2)Man(a1-3)]Man(b1-4)GlcNAc(b1-4)[Fuc(a1-6)]GlcNAc
Outline: as §1

[7] = biological target: Gal(b1-4)GlcNAc(b1-2)[Gal(b1-4)GlcNAc(b1-6)]Man(a1-6)[GlcNAc(b1-4)][Gal(b1-4)GlcNAc(b1-2)Man(a1-3)]Man(b1-4)GlcNAc(b1-4)GlcNAc
Outline: as §1

[8] = biological target: Gal(b1-4)GlcNAc(b1-2)[Gal(b1-4)GlcNAc(b1-6)]Man(a1-6)[GlcNAc(b1-4)][Gal(b1-4)GlcNAc(b1-2)[Gal(b1-4)GlcNAc(b1-4)]Man(a1-3)]Man(b1-4)GlcNAc(b1-4)[Fuc(a1-6)]GlcNAc
Outline: as §1

[9] = biological target: Gal(b1-4)GlcNAc(b1-3)Gal(b1-3)GalNAc
Outline: as §1

[10] = biological target: Gal(b1-4)GlcNAc(b1-3)Gal(b1-3)GlcNAc
Outline: as §1

[11] = biological target: Gal(b1-4)GlcNAc(b1-3)Gal(b1-4)Glc
Outline: as §1

[12] = biological target: Gal(b1-4)GlcNAc(b1-3)Gal(b1-4)GlcNAc
Outline: as §1

[13] = biological target: Gal(b1-4)GlcNAc(b1-3)Gal(b1-4)GlcNAc(b1-2)Man(a1-3)[Gal(b1-4)GlcNAc(b1-3)Gal(b1-4)GlcNAc(b1-2)Man(a1-6)]Man(b1-4)GlcNAc(b1-4)GlcNAc
Outline: as §1

[14] = biological target: Gal(b1-4)GlcNAc(b1-3)Gal(b1-4)GlcNAc(b1-2)Man(a1-3)[Gal(b1-4)GlcNAc(b1-3)Gal(b1-4)GlcNAc(b1-2)Man(a1-6)]Man(b1-4)GlcNAc(b1-4)[Fuc(a1-6)]GlcNAc
Outline: as §1

[15] = biological target: Gal(b1-4)GlcNAc(b1-3)Gal(b1-4)GlcNAc(b1-2)[Gal(b1-4)GlcNAc(b1-3)Gal(b1-4)GlcNAc(b1-6)]Man(a1-6)[Gal(b1-4)GlcNAc(b1-3)Gal(b1-4)GlcNAc(b1-2)Man(a1-3)]Man(b1-4)GlcNAc(b1-4)GlcNAc
Outline: as §1

[16] = biological target: Gal(b1-4)GlcNAc(b1-3)Gal(b1-4)GlcNAc(b1-2)[Gal(b1-4)GlcNAc(b1-3)Gal(b1-4)GlcNAc(b1-6)]Man(a1-6)[Gal(b1-4)GlcNAc(b1-3)Gal(b1-4)GlcNAc(b1-2)Man(a1-3)]Man(b1-4)GlcNAc(b1-4)[Fuc(a1-6)]GlcNAc
Outline: as §1

[17] = biological target: Gal(b1-4)GlcNAc(b1-3)Gal(b1-4)GlcNAc(b1-3)Gal(b1-4)GlcNAc
Outline: as §1

[18] = biological target: Gal(b1-4)GlcNAc(b1-3)Gal(b1-4)GlcNAc(b1-3)Gal(b1-4)GlcNAc(b1-2)Man(a1-3)[Gal(b1-4)GlcNAc(b1-3)Gal(b1-4)GlcNAc(b1-3)Gal(b1-4)GlcNAc(b1-2)Man(a1-6)]Man(b1-4)GlcNAc(b1-4)GlcNAc
Outline: as §1

[19] = biological target: Gal(b1-4)GlcNAc(b1-3)Gal(b1-4)GlcNAc(b1-3)Gal(b1-4)GlcNAc(b1-2)Man(a1-3)[Gal(b1-4)GlcNAc(b1-3)Gal(b1-4)GlcNAc(b1-3)Gal(b1-4)GlcNAc(b1-2)Man(a1-6)]Man(b1-4)GlcNAc(b1-4)[Fuc(a1-6)]GlcNAc
Outline: as §1

[20] = biological target: Gal(b1-4)GlcNAc(b1-3)Gal(b1-4)GlcNAc(b1-3)Gal(b1-4)GlcNAc(b1-2)[Gal(b1-4)GlcNAc(b1-3)Gal(b1-4)GlcNAc(b1-3)Gal(b1-4)GlcNAc(b1-6)]Man(a1-6)[Gal(b1-4)GlcNAc(b1-3)Gal(b1-4)GlcNAc(b1-3)Gal(b1-4)GlcNAc(b1-2)Man(a1-3)]Man(b1-4)GlcNAc(b1-4)[Fuc(a1-6)]GlcNAc
Outline: as §1

[21] = biological target: Gal(b1-4)GlcNAc(b1-3)Gal(b1-4)GlcNAc(b1-3)Gal(b1-4)GlcNAc(b1-3)Gal(b1-4)GlcNAc(b1-2)Man(a1-3)[Gal(b1-4)GlcNAc(b1-3)Gal(b1-4)GlcNAc(b1-3)Gal(b1-4)GlcNAc(b1-3)Gal(b1-4)GlcNAc(b1-2)Man(a1-6)]Man(b1-4)GlcNAc(b1-4)GlcNAc
Outline: as §1

[22] = biological target: Gal(b1-4)GlcNAc(b1-3)Gal(b1-4)GlcNAc(b1-3)Gal(b1-4)GlcNAc(b1-3)Gal(b1-4)GlcNAc(b1-2)Man(a1-3)[Gal(b1-4)GlcNAc(b1-3)Gal(b1-4)GlcNAc(b1-3)Gal(b1-4)GlcNAc(b1-3)Gal(b1-4)GlcNAc(b1-2)Man(a1-6)]Man(b1-4)GlcNAc(b1-4)[Fuc(a1-6)]GlcNAc
Outline: as §1

[23] = biological target: Gal(b1-4)GlcNAc(b1-3)Gal(b1-4)GlcNAc(b1-3)Gal(b1-4)GlcNAc(b1-3)Gal(b1-4)GlcNAc(b1-2)[Gal(b1-4)GlcNAc(b1-3)Gal(b1-4)GlcNAc(b1-3)Gal(b1-4)GlcNAc(b1-3)Gal(b1-4)GlcNAc(b1-6)]Man(a1-6)[Gal(b1-4)GlcNAc(b1-3)Gal(b1-4)GlcNAc(b1-3)Gal(b1-4)GlcNAc(b1-3)Gal(b1-4)GlcNAc(b1-2)Man(a1-3)]Man(b1-4)GlcNAc(b1-4)[Fuc(a1-6)]GlcNAc
Outline: as §1

[24] = biological target: Gal(b1-4)GlcNAc(b1-3)Gal(b1-4)GlcNAc(b1-3)Gal(b1-4)GlcNAc(b1-3)Gal(b1-4)GlcNAc(b1-3)Gal(b1-4)GlcNAc(b1-2)Man(a1-3)[Gal(b1-4)GlcNAc(b1-3)Gal(b1-4)GlcNAc(b1-3)Gal(b1-4)GlcNAc(b1-3)Gal(b1-4)GlcNAc(b1-3)Gal(b1-4)GlcNAc(b1-2)Man(a1-6)]Man(b1-4)GlcNAc(b1-4)GlcNAc
Outline: as §1

[25] = biological target: Gal(b1-4)GlcNAc(b1-3)Gal(b1-4)GlcNAc(b1-3)Gal(b1-4)GlcNAc(b1-3)Gal(b1-4)GlcNAc(b1-3)Gal(b1-4)GlcNAc(b1-2)Man(a1-3)[Gal(b1-4)GlcNAc(b1-3)Gal(b1-4)GlcNAc(b1-3)Gal(b1-4)GlcNAc(b1-3)Gal(b1-4)GlcNAc(b1-3)Gal(b1-4)GlcNAc(b1-2)Man(a1-6)]Man(b1-4)GlcNAc(b1-4)[Fuc(a1-6)]GlcNAc
Outline: as §1

[26] = biological target: Gal(b1-4)GlcNAc(b1-3)Gal(b1-4)GlcNAc(b1-3)Gal(b1-4)GlcNAc(b1-3)Gal(b1-4)GlcNAc(b1-3)Gal(b1-4)GlcNAc(b1-2)[Gal(b1-4)GlcNAc(b1-3)Gal(b1-4)GlcNAc(b1-3)Gal(b1-4)GlcNAc(b1-3)Gal(b1-4)GlcNAc(b1-3)Gal(b1-4)GlcNAc(b1-6)]Man(a1-6)[Gal(b1-4)GlcNAc(b1-3)Gal(b1-4)GlcNAc(b1-3)Gal(b1-4)GlcNAc(b1-3)Gal(b1-4)GlcNAc(b1-3)Gal(b1-4)GlcNAc(b1-2)Man(a1-3)]Man(b1-4)GlcNAc(b1-4)[Fuc(a1-6)]GlcNAc
Outline: as §1

[27] = biological target: Gal(b1-4)GlcNAc(b1-3)Gal(b1-4)GlcNAc(b1-3)Gal(b1-4)GlcNAc(b1-3)Gal(b1-4)GlcNAc(b1-3)Gal(b1-4)GlcNAc(b1-3)Gal(b1-4)GlcNAc(b1-2)Man(a1-3)[Gal(b1-4)GlcNAc(b1-3)Gal(b1-4)GlcNAc(b1-3)Gal(b1-4)GlcNAc(b1-3)Gal(b1-4)GlcNAc(b1-3)Gal(b1-4)GlcNAc(b1-3)Gal(b1-4)GlcNAc(b1-2)Man(a1-6)]Man(b1-4)GlcNAc(b1-4)GlcNAc
Outline: as §1

[28] = biological target: Gal(b1-4)GlcNAc(b1-3)Gal(b1-4)GlcNAc(b1-3)GalNAc
Outline: as §1

[29] = biological target: Gal(b1-4)GlcNAc(b1-3)Gal(b1-4)GlcNAc(b1-3)[Gal(b1-4)GlcNAc(b1-3)Gal(b1-4)GlcNAc(b1-6)]GalNAc
Outline: as §1

[30] = biological target: Gal(b1-4)GlcNAc(b1-3)Gal(b1-4)GlcNAc(b1-6)[Gal(b1-3)]GalNAc
Outline: as §1

[31] = biological target: Gal(b1-4)GlcNAc(b1-3)Gal(b1-4)[Fuc(a1-3)]GlcNAc(b1-3)Gal(b1-4)[Fuc(a1-3)]GlcNAc
Outline: as §1

[32] = biological target: Gal(b1-4)GlcNAc(b1-3)GalNAc
Outline: as §1

[33] = biological target: Gal(b1-4)GlcNAc(b1-3)[Fuc(a1-3)GlcNAc(b1-6)]Gal(b1-4)Glc
Outline: as §1

[34] = biological target: Gal(b1-4)GlcNAc(b1-3)[Gal(b1-4)GlcNAc(b1-6)]Gal(b1-4)GlcNAc
Outline: as §1

[35] = biological target: Gal(b1-4)GlcNAc(b1-3)[GlcNAc(b1-6)]Gal(b1-4)GlcNAc
Outline: as §1

[36] = biological target: Gal(b1-4)GlcNAc(b1-6)Gal(b1-4)GlcNAc
Outline: as §1

[37] = biological target: Gal(b1-4)GlcNAc(b1-6)GalNAc
Outline: as §1

B1: Epf (Streptococcus pyogenes) (protein)
chain: GDHGPEFNGVMVVKAAEAEELPDDLMNFKGTWEVSADGSSGRFFSKGATDSYVFHLIPAKDVKKPGWREHNEVKDSYIKIDKQSIAARYKTSTTAPYSVAFKVNTKSLIKDHDYKITFEQGQIASGITVDYRIGSAFNKTTDDSFKISDESKYASNVKIEGEEQGFKQREQGDKTISFRTLKEGPMSLVLLSKVEKKPQGDLDVEFKNLKIIDVTNPSQLDKGVAYVGNKNVQLTLKSDDGRTNFEGDEISLFNSRGELLQTVTVTKDQQNPISITLSEDQAKSLKNKEKLKVSIKQKQSKKTSKDFFFEVGIDPKVEAKQKEKLLELDKVKKQIEDSINGDAWLPEKPVDLQGDHGLSAWSHPQFEK
glycan array binding signal (z-score) [1]: -0.263 | glycan array binding signal (z-score) [2]: -0.164 | glycan array binding signal (z-score) [3]: -0.177 | glycan array binding signal (z-score) [4]: 0.065 | glycan array binding signal (z-score) [5]: 0.903 | glycan array binding signal (z-score) [6]: -0.532 | glycan array binding signal (z-score) [7]: 3.4 | glycan array binding signal (z-score) [8]: -0.6 | glycan array binding signal (z-score) [9]: -0.786 | glycan array binding signal (z-score) [10]: -0.58 | glycan array binding signal (z-score) [11]: -1.14 | glycan array binding signal (z-score) [12]: 0.308 | glycan array binding signal (z-score) [13]: 1.69 | glycan array binding signal (z-score) [14]: 2.08 | glycan array binding signal (z-score) [15]: 0.498 | glycan array binding signal (z-score) [16]: 0.225 | glycan array binding signal (z-score) [17]: -0.96 | glycan array binding signal (z-score) [18]: 0.344 | glycan array binding signal (z-score) [19]: 0.144 | glycan array binding signal (z-score) [20]: 0.709 | glycan array binding signal (z-score) [21]: 0.092 | glycan array binding signal (z-score) [22]: -0.057 | glycan array binding signal (z-score) [23]: 0.695 | glycan array binding signal (z-score) [24]: 2.53 | glycan array binding signal (z-score) [25]: -1.58 | glycan array binding signal (z-score) [26]: 0.896 | glycan array binding signal (z-score) [27]: 0.993 | glycan array binding signal (z-score) [28]: -0.499 | glycan array binding signal (z-score) [29]: -0.955 | glycan array binding signal (z-score) [30]: -0.469 | glycan array binding signal (z-score) [31]: -1.31 | glycan array binding signal (z-score) [32]: -0.121 | glycan array binding signal (z-score) [33]: 1.19 | glycan array binding signal (z-score) [34]: 1.22 | glycan array binding signal (z-score) [35]: 0.341 | glycan array binding signal (z-score) [36]: -0.547 | glycan array binding signal (z-score) [37]: -0.413
